# Test results published in PubChem BioAssay AID493014 (National Center for Advancing Translational Sciences (NCATS), 2011).
# The list shows a part of the results. These are further read-outs of the screen, such as a control signal, another cell line or another target. No call is given for them. Compounds called inactive in the main read-out are mostly missing here. Potencies come from curve fits of mixed quality, noted in brackets.
# Experiment: qHTS Assay to Find Inhibitors of Chronic Active B-Cell Receptor Signaling
# Conditions: ABC-DLBCL IkBa-CBG/CBR reporter, luminescence ratio (green luciferase fused to IkBa over red control in TMD8 lymphoma cells), 4 h
# Summary of the method: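 Doxycycline induced both beetle luciferases in TMD8 lymphoma cells; IKK-driven degradation limits the IkappaBalpha-fused green signal, while red luminescence normalises for cell number and nonspecific effects. Compounds tested up to 46 uM, 4 hrs.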
# [1] = measured here: CBR red luminescence, cell number
# [2] = measured here: IkBa-CBG green luminescence
compound,measurement,setting,value
Cc1[nH]c(=O)[nH]c(=O)c1S(=O)(=O)NCC12CC3CC(CC(C3)C1)C2,AC50,[1],"0.206 µM [rising, full curve, poor fit]"
COc1cccc(C2NC(=S)NC(C)=C2C(=O)c2ccccc2)c1OC (stereo unspecified),AC50,[1],"8.91 µM [rising, partial curve, poor fit]"
same,AC50,[2],"8.91 µM [falling, partial curve]"
COc1ccc(C(C)=O)cc1CSc1nc2cc(Cl)ccc2o1,AC50,[1],"1.46 µM [rising, partial curve]"
O=C(Nc1nc2ccccc2[nH]1)c1cccc(Cl)c1,AC50,[1],"4.47 µM [falling, partial curve, poor fit]"
CCOC(=O)C1CCN(C(=O)c2cc3c(C)cc(C)cc3[nH]2)CC1,AC50,[1],"0.447 µM [falling, full curve, poor fit]"
O=C1C(Cl)=C(NC2CCCCC2)C(=O)N1Cc1ccccc1,AC50,[1],"5.62 µM [rising, partial curve]"
CCOC(=O)CN1C(=O)CCSc2ccc(Cl)cc21,AC50,[1],"14.1 µM [rising, partial curve, poor fit]"
CC1CCN(C(c2ccccc2)c2nnnn2C(C)(C)C)CC1 (stereo unspecified),AC50,[1],"0.731 µM [falling, partial curve, poor fit]"
CCn1c(=O)c(C(=O)NNC(=O)c2ccccc2Br)c(O)c2ccccc21,AC50,[1],"0.631 µM [falling, full curve]"
C[C@@H]1C[C@H]2[C@@H]3CCC4=CC(=O)C=C[C@]4(C)[C@@]3(F)[C@@H](O)C[C@]2(C)[C@H]1C(=O)CO,AC50,[1],"0.092 µM [rising, full curve, poor fit]"
CCc1noc(C)c1C(=O)Nc1nc(-c2ccccc2)cs1,AC50,[1],"29.1 µM [falling, single point]"
Cc1ccc2nc(NCCc3ccc(Cl)cc3)c3nncn3c2c1,AC50,[1],"17.8 µM [rising, partial curve, poor fit]"
CC/C(=N\NC(N)=O)c1ccc(OC)c(OC)c1,AC50,[1],"1.58 µM [rising, partial curve]"
Cc1cc(C)c2c(-n3cccc3)nn(C)c2n1,AC50,[1],"0.1 µM [rising, full curve, poor fit]"
Cc1cc(C)cc(NC(=O)C2CCCN2S(=O)(=O)c2cccc3cccnc23)c1 (stereo unspecified),AC50,[1],"5.01 µM [rising, partial curve, poor fit]"
COc1ccc(C[C@H]2CN3C(=NC[C@@H]3Cc3ccc(O)cc3)N2C[C@H](C)NC(=O)c2ccc(C)c(Br)c2)cc1,AC50,[1],"14.1 µM [falling, partial curve]"
CCc1ccc(N2CC(C(=O)N3CCCC3)CC2=O)cc1 (stereo unspecified),AC50,[1],"8.91 µM [rising, partial curve, poor fit]"
O=C(COC(=O)c1cccc([N+](=O)[O-])c1)c1ccc(OCc2ccccc2)cc1,AC50,[1],"4.11 µM [rising, full curve, poor fit]"
C=CCOC(=O)C1=C(C)NC(=S)NC1/C=C/c1ccccc1 (stereo unspecified),AC50,[1],"10 µM [falling, partial curve, poor fit]"
CCc1cc2c(Nc3ccc(O)cc3)nc(C)nc2s1,AC50,[1],"35.5 µM [falling, single point]"
Cc1oc2c(c1C(=O)NCc1cccnc1)C(=O)c1ccccc1C2=O,AC50,[1],"2.82 µM [falling, full curve]"
CS(=O)(=O)Nc1ccc(C2=NN(C(=O)c3ccco3)C(c3cccc(F)c3)C2)cc1 (stereo unspecified),AC50,[1],"22.4 µM [falling, single point]"
O=[N+]([O-])c1ccc(CN2CCCCCC2)s1,AC50,[1],"18.4 µM [rising, partial curve, poor fit]"
O=C(NC(=S)N1CCN(Cc2ccccc2)CC1)c1ccccc1,AC50,[1],"29.1 µM [rising, single point]"
CCOC(=O)/C=C(\C)Nc1cc(C)nn1-c1ccccc1,AC50,[1],"10 µM [falling, single point]"
COCCCNC(=S)Nc1cccc(S(=O)(=O)NC2=NCCC2)c1,AC50,[1],"35.5 µM [rising, single point]"
CCOc1ccc(CN(C)CC(O)COC(c2ccc(OC)cc2)c2ccc(OC)cc2)cc1 (stereo unspecified),AC50,[1],"14.1 µM [falling, partial curve]"
COc1ccccc1NC(=O)c1c(C)nc2ccccc2c1C(=O)O,AC50,[1],"35.5 µM [falling, single point]"
Cc1ccccc1N(CC(=O)NCCc1ccccc1)C(=O)c1ccc(N2CCCC2)nc1,AC50,[1],"11.2 µM [falling, single point]"
COc1ccc(/C=C/C(=O)NC(=S)NNC(=O)[C@H]2C[C@@H]2c2ccccc2)cc1OC,AC50,[1],"3.98 µM [rising, single point]"
O=C(c1ccc(F)cc1)C1CCN(C(=S)Nc2ccc(F)cc2)CC1,AC50,[1],"14.1 µM [falling, single point]"
O=C(CSc1nnc(-c2ccccc2)c(-c2ccccc2)n1)Nc1ncc(Cl)cc1Cl,AC50,[1],"0.411 µM [rising, partial curve, poor fit]"
O=C(CCS(=O)(=O)c1ccccc1)Nc1nc2c(s1)CCCC2,AC50,[1],"23.1 µM [falling, single point]"
CC(OC(=O)c1cccs1)C(=O)Nc1nc(-c2ccccc2)cs1 (stereo unspecified),AC50,[2],"6.51 µM [rising, partial curve, poor fit]"
Cc1cc(C)n(CCC(=O)N=Nc2c(O)[nH]c3ccc(Br)cc23)n1,AC50,[1],"11.2 µM [falling, single point]"
O=C(N/N=C/c1ccc(Cl)cc1)C1CC12CCC2 (stereo unspecified),AC50,[1],"14.1 µM [falling, single point]"
Cc1c(C(=O)N2CCN(CCc3ccccn3)CC2)oc2ccc(Cl)cc12,AC50,[1],"14.1 µM [falling, single point]"
COc1cccc(NC(=O)CC2C(=O)NC3CCCCC3N2C(=O)c2ccc(F)cc2)c1 (stereo unspecified),AC50,[2],"29.1 µM [falling, single point]"
CCn1cnc2cc(NCc3ccccc3Cl)ccc21,AC50,[1],"4.47 µM [falling, partial curve]"
CCCn1c(=O)c2c(c3ccccc31)OCC(=O)N2,AC50,[1],"2.91 µM [rising, partial curve, poor fit]"
O=C(C[n+]1cccc(CNC(=O)c2ccc(OC(F)F)cc2)c1)Nc1ccc(F)cc1,AC50,[1],"29.1 µM [falling, single point]"
CC(NC(=O)COC(=O)c1ccccc1SCC(=O)N1CCCC1)c1ccccc1 (stereo unspecified),AC50,[1],"20.6 µM [rising, partial curve, poor fit]"
CN1CCc2c(sc(/N=C/c3cc(Cl)ccc3O)c2C#N)C1,AC50,[1],"20 µM [falling, single point]"
COc1ccccc1-c1nc(C#N)c(N2CCCCCC2)o1,AC50,[1],"32.6 µM [falling, single point]"
CCCNC(=O)c1ccccc1NC(=O)c1ccc(CSc2ccccc2)cc1,AC50,[1],"18.4 µM [rising, partial curve, poor fit]"
Clc1nc(Nc2ccccc2)nc(Nc2ccccc2)n1,AC50,[1],"18.4 µM [falling, partial curve]"
CCc1nccn1CCC(=O)N1CCc2c([nH]c3ccccc23)C1CC(C)C (stereo unspecified),AC50,[1],"11.2 µM [falling, partial curve, poor fit]"
COc1ccc(N2CCN(C(=O)C(=O)c3c(C)n(C)c4ccccc34)CC2)cc1,AC50,[1],"14.1 µM [rising, partial curve, poor fit]"
COc1ccnc(CSC(N)=Nc2ccccc2OC)c1,AC50,[2],"25.9 µM [falling, single point]"
CN(C(=O)c1cccs1)c1ccccc1C(=O)O,AC50,[1],"6.51 µM [rising, partial curve]"
Cc1ccccc1NS(=O)(=O)c1ccc(NC(=O)CSCc2ccc(Br)cc2)cc1,AC50,[1],"29.1 µM [falling, single point]"
CCSc1nnc(CNC(=O)C23CC4CC(CC(C4)C2)C3)n1Cc1ccccc1,AC50,[1],"32.6 µM [falling, partial curve, poor fit]"
same,AC50,[2],"23.1 µM [rising, partial curve, poor fit]"
O=C(NN=Cc1ccccc1C(=O)O)c1ccc(NS(=O)(=O)c2cccs2)cc1,AC50,[1],"9.2 µM [falling, partial curve]"
C/C(=N\NC(=O)CC(C)C)c1ccc(N2CCCCC2)cc1,AC50,[1],"0.82 µM [rising, partial curve, poor fit]"
O=C(OCc1ccc([N+](=O)[O-])cc1)c1cc([N+](=O)[O-])ccc1N1CCOCC1,AC50,[1],"2.59 µM [rising, partial curve, poor fit]"
Cn1c(=O)n(C)c2cc(NC(=O)CSc3nc4ccccc4c(=O)[nH]3)ccc21,AC50,[1],"3.16 µM [rising, full curve, poor fit]"
O=C(c1ccc2nc(N3CCOCC3)sc2c1)N1CCCC1,AC50,[1],"29.1 µM [rising, single point]"
same,AC50,[2],"20.6 µM [falling, single point]"
CCCCN(C)CC(O)Cn1cc(/C=C/C(=O)c2ccc(OCC)cc2)c2ccccc21 (stereo unspecified),AC50,[1],"15.8 µM [falling, single point]"
Cc1ccc(NC(=O)CCSCCC(=O)Nc2ccc(C)c(C)c2)cc1C,AC50,[1],"5.01 µM [falling, partial curve]"
CSCCCN1CCCC(CO)(Cc2ccc(F)cc2)C1 (stereo unspecified),AC50,[1],"0.355 µM [rising, full curve, poor fit]"
CC(=O)C1=C(O)C(=O)N(CCCCCC(=O)O)C1c1ccc(N(C)C)cc1 (stereo unspecified),AC50,[1],"20.6 µM [falling, partial curve, poor fit]"
O=[N+]([O-])c1ccccc1/C=C/C=N/n1c(-c2ccc(Cl)cc2)n[nH]c1=S,AC50,[1],"1.26 µM [rising, full curve, poor fit]"
O=C(NCCc1ccccc1)c1ccc(-c2ccccc2Cl)o1,AC50,[1],"0.82 µM [rising, full curve]"
